Experimental data: patent US20210293825A1, “METHODS FOR PRECISION THERAPEUTIC TARGETING OF HUMAN CANCER CELL MOTILITY AND KITS THEREOF” (UNITED STATES GOVERNMENT AS REPRESENTED BY THE DEPARTMENT …, priority 2018, published 2021)
These are yes or no findings as the source states them, for the method shown. Some binding calls cover weakened binding; strength is not graded here.

Protein sequences, listed by entry. Tags and fused reporters are not part of them. Lines headed by an entry give the natural chain unless they say otherwise; changes in a name come on top.
UniProt P27652: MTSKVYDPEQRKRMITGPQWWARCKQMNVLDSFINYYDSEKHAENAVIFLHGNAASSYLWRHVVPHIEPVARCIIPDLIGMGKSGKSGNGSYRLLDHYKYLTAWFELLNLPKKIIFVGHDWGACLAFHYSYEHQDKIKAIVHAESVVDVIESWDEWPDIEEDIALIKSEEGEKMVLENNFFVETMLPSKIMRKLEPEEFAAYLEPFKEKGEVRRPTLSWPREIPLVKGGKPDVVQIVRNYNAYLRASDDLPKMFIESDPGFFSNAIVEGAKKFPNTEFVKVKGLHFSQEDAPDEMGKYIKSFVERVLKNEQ
UniProt Q13546: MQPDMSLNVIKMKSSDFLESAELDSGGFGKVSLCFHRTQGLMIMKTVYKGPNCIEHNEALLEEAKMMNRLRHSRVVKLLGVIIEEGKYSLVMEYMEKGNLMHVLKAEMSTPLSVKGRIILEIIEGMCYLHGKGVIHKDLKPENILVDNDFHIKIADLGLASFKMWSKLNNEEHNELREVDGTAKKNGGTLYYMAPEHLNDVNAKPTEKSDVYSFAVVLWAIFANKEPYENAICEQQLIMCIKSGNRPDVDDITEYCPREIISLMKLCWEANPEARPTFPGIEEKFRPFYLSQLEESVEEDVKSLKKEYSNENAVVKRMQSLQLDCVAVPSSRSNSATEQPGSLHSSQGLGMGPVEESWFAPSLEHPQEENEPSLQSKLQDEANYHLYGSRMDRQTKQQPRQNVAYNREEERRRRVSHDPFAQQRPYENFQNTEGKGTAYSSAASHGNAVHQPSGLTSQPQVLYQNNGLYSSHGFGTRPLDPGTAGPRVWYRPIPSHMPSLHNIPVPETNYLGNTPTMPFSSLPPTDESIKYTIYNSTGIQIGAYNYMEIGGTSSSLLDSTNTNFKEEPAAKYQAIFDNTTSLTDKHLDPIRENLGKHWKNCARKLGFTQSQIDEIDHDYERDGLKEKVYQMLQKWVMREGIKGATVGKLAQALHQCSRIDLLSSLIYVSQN

Key:
[1] = molecular target: HSP90β/CDC37 heterocomplex in HEK293T cells stably expressing Renilla-HSP90β (LUMIER assay) (UniProt P27652); assay: LUMIER assay in TGFβ-treated HEK293T cells, with and without 10 µM KBU2046
[2] = molecular target: HSP90β/CDC37 heterocomplex in HEK293T cells stably expressing Renilla-HSP90β (LUMIER assay) (UniProt P27652); assay: LUMIER assay in HEK293T cells

binding [1]: binds
binding [2]: binds
Substance: FLAG-tagged RIPK1 transfected into HEK293T cells (from UniProt Q13546 1-671) (enzyme)
